Measurements as given in PubChem BioAssay AID248 (DTP/NCI, 2004).
The list shows only some results of the screen, not a fair sample: it is rich in T/C values a quarter to a half above the control, in often repeated tests (any T/C) and in doses without a T/C. Further doses and runs are listed elsewhere. T/C gives the treated animals as a percentage of the vehicle group. Some entries give survivors of the animals treated and no T/C: the source files T/C as zero there, which appears to mark a toxic dose or a test without result, not a measured value. Some doses without a T/C left all or most animals alive at the check, yet need not have been tolerated: the source hardly ever lists a survival T/C far under the control, and the zero likely stands for such cases as well. Survivors were counted at the toxicity check, usually on the fifth day, unless a day is given; later deaths do not show. Schedules are NCI's codes, taken here to give the interval after Q, in days (D) or hours (H), and the number of doses after X.

System: L1210 leukemia ip in BDF1 mice, survival T/C
Test: NCI In Vivo Anticancer Drug Screen. Data for tumor model L1210 Leukemia (intraperitoneal) in B6D2F1 (BDF1) mice
Conditions: T/C endpoint: mean survival time, higher T/C = longer survival

O=C(c1ccc(F)cc1)C(F)(F)F
survivor count (dose: 200.0 mg/kg/injection, schedule: Q01DX001 (ip), vehicle: Klucel (hydroxypropylcellulose) (HPC)): 6 of 6

CC(O)C1CCCNC1 (stereo not given)
survivor count (dose: 400.0 mg/kg/injection, schedule: Q04DX003 (ip), vehicle: saline): 0 of 6

O=P1(N(CCCl)CCCl)NC(OO)CCO1 (stereo not given)
survivor count (dose: 300.0 mg/kg/injection, schedule: Q01DX001 (ip), vehicle: DMSO): 4 of 10 | survivor count (dose: 400.0 mg/kg/injection, schedule: Q01DX001 (ip), vehicle: DMSO): 2 of 10

Clc1c(Cl)c(Cl)c2n[nH]nc2c1Cl
survivor count (dose: 150.0 mg/kg/injection, schedule: Q01DX001 (ip), vehicle: saline): 1 of 6 | survivor count (dose: 300.0 mg/kg/injection, schedule: Q01DX001 (ip), vehicle: saline): 0 of 6

C=CC12COC(=O)C(=C)C1C1OC(=O)C(=C)C1C(O)C2 (stereo not given)
survivor count (dose: 10.0 mg/kg/injection, schedule: Q01DX009 (ip), vehicle: saline + alcohol): 3 of 6 | survivor count (dose: 12.0 mg/kg/injection, schedule: Q01DX009 (ip), vehicle: saline): 2 of 6 | survivor count (dose: 20.0 mg/kg/injection, schedule: Q01DX009 (ip), vehicle: saline + alcohol): 0 of 6

Nc1ccc(S(=O)(=O)Nc2cnc3ccccc3n2)cc1
survivor count (dose: 400.0 mg/kg/injection, schedule: Q04DX002 (ip), vehicle: saline): 3 of 3
